Reference: publication PMC4465127
No constants are given. Whether binding was seen depends on the method and setting. Binding calls can cover weak binding; strength is not graded here.

What was measured:
[1] = biological target: T1, sLET-23ΔIV/V (LET-23 extracellular region with domains IV and V deleted) (C. elegans) (UniProt P24348); assay: AUC; sedimentation equilibrium with 50-70 μM LIN-3^EGF added; 1 to 8 μM receptor, 10 mM Hepes pH 8.0, 150 mM NaCl, 20 °C, three speeds; dimer to monomers; both purified
T1 sequence: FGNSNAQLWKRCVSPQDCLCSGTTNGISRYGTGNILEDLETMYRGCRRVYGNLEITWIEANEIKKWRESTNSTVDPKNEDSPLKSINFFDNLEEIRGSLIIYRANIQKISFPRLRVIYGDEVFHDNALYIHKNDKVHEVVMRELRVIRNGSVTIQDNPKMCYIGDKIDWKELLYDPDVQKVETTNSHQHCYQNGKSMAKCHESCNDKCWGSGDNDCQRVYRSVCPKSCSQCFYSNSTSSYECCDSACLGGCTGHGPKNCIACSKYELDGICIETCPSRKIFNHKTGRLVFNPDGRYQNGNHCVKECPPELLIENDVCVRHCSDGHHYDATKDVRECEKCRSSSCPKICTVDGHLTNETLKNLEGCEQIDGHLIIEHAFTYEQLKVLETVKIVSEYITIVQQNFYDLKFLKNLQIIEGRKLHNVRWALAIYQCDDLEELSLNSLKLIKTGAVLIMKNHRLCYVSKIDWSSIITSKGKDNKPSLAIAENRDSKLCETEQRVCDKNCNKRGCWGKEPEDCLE

[2] = biological target: T2, sLET-23ΔV (LET-23 extracellular region with domain V deleted) (C. elegans) (UniProt P24348); assay: SAXS; synchrotron (CHESS F1), 42 μM sLET-23ΔV with 100 μM LIN-3^EGF, pH 8.0, 5% glycerol; both purified
T2 sequence: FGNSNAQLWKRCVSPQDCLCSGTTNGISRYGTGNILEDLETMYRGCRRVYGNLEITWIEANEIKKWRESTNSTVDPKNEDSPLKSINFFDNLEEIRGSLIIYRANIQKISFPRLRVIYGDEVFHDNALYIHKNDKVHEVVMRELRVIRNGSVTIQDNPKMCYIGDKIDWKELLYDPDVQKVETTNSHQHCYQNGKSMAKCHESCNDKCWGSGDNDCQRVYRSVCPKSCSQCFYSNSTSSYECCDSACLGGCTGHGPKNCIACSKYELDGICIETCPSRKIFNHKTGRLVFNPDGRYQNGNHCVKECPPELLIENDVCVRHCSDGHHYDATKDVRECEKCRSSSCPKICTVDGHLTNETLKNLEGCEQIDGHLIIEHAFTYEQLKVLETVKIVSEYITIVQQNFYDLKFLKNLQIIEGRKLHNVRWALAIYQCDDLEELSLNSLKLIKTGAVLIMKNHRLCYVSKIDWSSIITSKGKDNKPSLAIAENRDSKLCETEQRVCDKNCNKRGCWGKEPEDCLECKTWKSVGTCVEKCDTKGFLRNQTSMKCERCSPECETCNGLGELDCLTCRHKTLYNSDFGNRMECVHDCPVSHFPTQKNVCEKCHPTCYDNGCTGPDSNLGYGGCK

binding [1]: binds
binding [2]: binds
Substance: LIN-3^EGF (the purified EGF domain from LIN-3) (C. elegans) (ligand)
